These results are taken from PubChem BioAssay AID2685 (National Center for Advancing Translational Sciences (NCATS), 2010).

The list shows a part of the results. Further columns of the screen follow, without active or inactive calls. Most of these compounds were active or inconclusive in the main read-out, so they are no random draw. Words in brackets tell the shape of the fitted curve; partial curves, single points and poor fits give uncertain potencies.

A short description of the assay: qHTS Assay for Lipid Storage Modulators in Drosophila S3 Cells.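 As to cell number change: cells counted by Cell Tracker Red CMTPX staining in the red channel.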 The following applies: BODIPY lipid droplet fluorescence, 18-24 h; for cell number change: measured here: cell count max response, cells fed with added oleic acid. A digest of the protocol:
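Drosophila S3 cells loaded with oleic acid (400 uM, as added) and compounds at several concentrations; lipid droplets imaged by 488-nm laser-scanning cytometry, 500–530 nm intensity and object ratio to cell channel. Percent activity normalized to 20 uM Triacsin C.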

Setting [1] is: measured here: lipid fluorescence (Fed channel) AC50, cells fed with added oleic acid.
[2] abbreviates: measured here: cell number channel AC50, cells fed with added oleic acid.

Consider `O=C(O)CSc1nnc(-c2ccccc2O)n1Cc1ccccc1`, for which, under setting [1], the AC50 is 18.4 µM [falling, partial curve]. Turning to `N#Cc1ccc(NC(=O)Cn2cnc(S(=O)(=O)N3CCCCC3)c2)cc1`, the cell number change is -14.9%. Further, the concentration at half-maximal activity (AC50) under setting [1] was 0.651 µM [falling, full curve]. Turning to `O=C(O)/C=C/C(=O)NCCC1=CCCCC1`, the cell number change came out at 16.7%. The AC50 under setting [2] is 4.11 µM [falling, single point]. Under setting [1], the AC50 was 4.11 µM [falling, single point]. Regarding `Cc1csc(NC(=O)CCCC(=O)O)c1-c1nc2ccccc2s1`, the cell number change was -4.26%. For the molecule `Cc1nn(Cc2ccc(Cl)c(Cl)c2)c(C)c1NC(=O)c1noc2c1CCCCC2`, the cell number change is -5.48%. In addition, under setting [2], the half-maximal activity concentration (AC50) was 0.82 µM [rising, full curve]. As to `S=C1NC2=C(CCC/C2=C\c2ccccc2)C(c2ccccc2)N1` (configuration not stated), the cell number change is -31.9%. Further, under setting [2], the AC50 is 0.461 µM [rising, single point]. Also, the AC50 under setting [1] was 29.1 µM [rising, partial curve, poor fit]. In the case of `O=C(CN1CCC2(CC1)OCCO2)c1ccc2cc[nH]c2c1`, the cell number change came to 74.6%. The AC50 under setting [2] was 29.1 µM [rising, single point]. Moreover, the AC50 under setting [1] was 29.1 µM [rising, single point]. Regarding `N#C/C(=C\C1CC=CCC1)c1nc2ccccc2[nH]1` (configuration not stated), the cell number change is -23.3%. For the same molecule, the half-maximal activity concentration (AC50) under setting [1] is 4.61 µM [falling, full curve, poor fit].

Consider `CCC(C)NCCOc1ccc(C)cc1[N+](=O)[O-]` (configuration not stated), for which the cell number change is -0.0278%. Moreover, the AC50 under setting [1] is 0.82 µM [rising, full curve, poor fit]. Turning to `COc1ccc(CNC(=O)CN(Cc2ccc(C)cc2)S(=O)(=O)c2ccc(Cl)cc2)cc1`, the cell number change is -9.89%. In addition, the AC50 under setting [2] was 2.06 µM [rising, single point]. Further, under setting [1], the AC50 was 6.51 µM [rising, single point]. Turning to `CCOC(=O)c1sc(=S)n(-c2ccc(OC)cc2)c1C`, the cell number change was -9.29%. Further, the half-maximal activity concentration (AC50) under setting [2] was 0.00461 µM [rising, full curve, poor fit]. For the same molecule, under setting [1], the AC50 is 0.116 µM [rising, full curve, poor fit]. In the case of `COc1ccc(OC)c(NC(=O)CS(=O)(=O)Cc2nc(-c3ccccc3C)oc2C)c1`, the cell number change turned out to be 23.2%. The AC50 under setting [2] is 2.06 µM [rising, single point]. Besides, the AC50 under setting [1] is 9.2 µM [rising, single point]. `CCC(C)NS(=O)(=O)c1ccc(OCC(=O)NCc2ccc3c(c2)OCO3)cc1` (configuration not stated): the cell number change was found to be 77.9%. Further, the concentration at half-maximal activity (AC50) under setting [2] is 7.31 µM [rising, partial curve]. Moreover, the AC50 under setting [1] was 20.6 µM [rising, partial curve]. In the case of `Cc1nc2c(C)cccn2c(=O)c1NC(=O)COc1ccccc1`, the cell number change was found to be 1.71%. For the same molecule, the half-maximal activity concentration (AC50) under setting [1] is 5.17 µM [falling, full curve]. For `CCN(Cc1ccccc1)S(=O)(=O)c1ccc(C(=O)N(CCCN(C)C)c2nc3c(C)c(C)ccc3s2)cc1`, the cell number change was -82.3%. Besides, the half-maximal activity concentration (AC50) under setting [2] is 13 µM [falling, partial curve]. Under setting [1], the AC50 is 1.84 µM [falling, single point]. As to `CCOc1ccccc1OCCOCCOc1ccccc1[N+](=O)[O-]`, the cell number change is -21.7%. Besides, the concentration at half-maximal activity (AC50) under setting [1] was 8.2 µM [rising, partial curve, poor fit]. Turning to `Cc1cccc(OCc2nnc(SCc3nc4ccccc4c(=O)[nH]3)o2)c1`, the cell number change was 2.03%. The half-maximal activity concentration (AC50) under setting [1] is 6.51 µM [rising, single point]. Turning to `Cc1ccc(OCCn2cc(/C=C3\C(=O)NN(c4ccccc4)C3=O)c3ccccc32)cc1`, the cell number change is -44.7%. Also, under setting [2], the AC50 is 0.0116 µM [falling, full curve, poor fit]. For the same molecule, the concentration at half-maximal activity (AC50) under setting [1] is 20.6 µM [falling, partial curve].

Take `CCOC(=O)c1sc(=S)n(CC)c1N`: the cell number change is -8.64%. For `Cc1oc2cc3oc(=O)c(CCC(=O)N4C[C@H]5C[C@@H](C4)c4cccc(=O)n4C5)c(C)c3cc2c1C`, the cell number change is -4.85%. Moreover, the AC50 under setting [1] is 0.58 µM [rising, single point]. For `COc1ccccc1NC(=O)N1CCCC1C(=O)NCc1ccc2c(c1)OCO2` (configuration not stated), the AC50 under setting [1] was 7.31 µM [rising, partial curve, poor fit].

On to `COc1ccccc1N(CC(=O)NCc1ccccc1C)S(=O)(=O)c1ccc(C)cc1`, for which the cell number change is -6.58%. As to `Cc1ccc(CC(CC(=O)Nc2cccc(C(F)(F)F)c2)C(=O)O)cc1` (configuration not stated), the cell number change is -43.5%. In addition, the concentration at half-maximal activity (AC50) under setting [2] is 29.1 µM [falling, single point]. The AC50 under setting [1] is 29.1 µM [falling, single point]. On to `CCN1CCN(CC#CCOc2ccccc2OC)CC1`, for which the cell number change is 13.1%. The AC50 under setting [1] is 13 µM [rising, partial curve]. As to `CN(CC1COCCO1)C(=O)c1cc(COc2c(F)cccc2F)on1` (configuration not stated), the cell number change is 23.9%. Also, under setting [1], the AC50 is 0.00517 µM [rising, full curve, poor fit].

In the case of `Cc1cc(C)c(C)c(S(=O)(=O)N2CCCN(C)CC2)c1C`, the cell number change amounted to 8.4%. The AC50 under setting [1] was 0.206 µM [rising, single point]. In the case of `COc1cccc(CNCCNC(=O)c2nonc2N)c1`, the cell number change is -37.1%. The AC50 under setting [2] is 29.1 µM [falling, single point]. Besides, the half-maximal activity concentration (AC50) under setting [1] is 16.4 µM [falling, single point].

For the molecule `CCCCCCn1c(NCC)nc2c1c(=O)n(C)c(=O)n2C`, the cell number change is -41.9%. In addition, under setting [2], the half-maximal activity concentration (AC50) was 1.03 µM [falling, full curve]. The concentration at half-maximal activity (AC50) under setting [1] was 2.06 µM [falling, full curve]. As for `O=CN1CCN(C(=O)c2ccc([N+](=O)[O-])cc2)CC1`, the cell number change came out at 15.4%. Further, the AC50 under setting [1] is 6.51 µM [falling, single point]. As for `Cc1ccc(S(=O)(=O)NCc2ccc(C(=O)NCc3cccnc3)cc2)cc1`, the cell number change turned out to be 18.4%. Take `Cc1ccc(NC(=O)C2C(c3ccccc3)C2(Cl)Cl)c(C)c1` (configuration not stated): the cell number change is 47.9%. Under setting [2], the concentration at half-maximal activity (AC50) is 0.231 µM [rising, full curve]. In addition, the half-maximal activity concentration (AC50) under setting [1] was 0.00461 µM [rising, full curve, poor fit]. For the molecule `Cc1c(NC(=O)c2ccc(C(=O)Nc3c(C)n(C)n(-c4ccccc4)c3=O)cc2)c(=O)n(-c2ccccc2)n1C`, the cell number change amounted to 16.1%. On to `O=C(CCC1CCCCC1)NCCN1CCOCC1`, for which the cell number change is 20.4%. The AC50 under setting [1] was 29.1 µM [rising, single point]. For the molecule `Cc1cccc(NC(=S)N/N=C2\CC(C)(C)Oc3ccc(O)cc32)c1`, the cell number change was -27.8%. The AC50 under setting [1] is 29.1 µM [falling, single point]. Regarding `CC1(C)CC(CC(=O)O)(c2ccc(F)cc2)CCO1` (configuration not stated), the cell number change came out at 11.1%. Regarding `N#CCCCC#Cc1ccc2c(c1)COc1c3ccccc3nn1-2`, the cell number change was 9.64%. For the same molecule, the half-maximal activity concentration (AC50) under setting [2] was 0.461 µM [falling, single point]. Besides, the AC50 under setting [1] is 1.64 µM [falling, partial curve]. In the case of `CSc1ccccc1NC(=O)c1ccc(CN2CCOCC2)cc1`, the cell number change was 55.8%. Further, the AC50 under setting [2] was 25.9 µM [rising, single point]. As for `COc1ccc(CCNC(=O)C(=O)NCC2OCCN2S(=O)(=O)c2cc(F)ccc2F)cc1OC` (configuration not stated), the cell number change was 10.4%.

On to `CCC(C)NC(=O)C1CCC(CNS(=O)(=O)c2ccc3c(c2)N(C(C)=O)CCO3)CC1` (configuration not stated), for which the cell number change is -3.54%. For the molecule `CCOc1ccc(N2CC(C(=O)NCc3ccco3)CC2=O)cc1` (configuration not stated), the cell number change worked out at 12.9%. In addition, under setting [1], the half-maximal activity concentration (AC50) is 0.13 µM [rising, full curve, poor fit]. As to `Cc1ccc(C)c(Nc2nn3c(=O)c4ccc(C(=O)NCc5cccnc5)cc4nc3s2)c1`, under setting [2], the half-maximal activity concentration (AC50) was 1.64 µM [falling, partial curve]. For the molecule `COc1ccc(CN(C)C(=O)[C@H](Cc2ccccc2)NC(=O)c2ccco2)c(OC)c1`, the cell number change was -10.9%. Also, under setting [1], the AC50 was 6.51 µM [falling, single point]. With `N#Cc1cccc(C(=O)N(CCc2ccccc2)Cc2cccs2)c1`, the cell number change is -22.2%. Regarding `COc1ccc2nc(NC(=O)CCNC(=O)c3ccco3)sc2c1`, under setting [1], the AC50 is 9.2 µM [falling, partial curve, poor fit]. Consider `Cc1cc2oc(=O)cc(CN(C)Cc3ccccc3)c2cc1C(C)C`, for which the cell number change turned out to be 18.7%. The AC50 under setting [2] was 4.11 µM [rising, single point].

Regarding `CC1C(=O)N2CCCc3cc(NC(=O)c4ccccc4Br)cc1c32` (configuration not stated), the cell number change worked out at 58.6%. For the same molecule, the AC50 under setting [2] is 11.6 µM [rising, partial curve, poor fit].

Take `COc1cc(NC(=S)N2CCCC(CO)C2)cc(OC)c1` (configuration not stated): the cell number change was determined as 4.72%. `COC(=O)CC1(c2ccc(OC)cc2)C(=O)c2ccccc2C1=O`: the cell number change was -21.1%. Under setting [2], the AC50 is 4.11 µM [falling, single point]. The concentration at half-maximal activity (AC50) under setting [1] is 1.64 µM [falling, partial curve, poor fit].

On to `COc1ccc2c(c1)OC[C@H]1[C@H]2N2C(=O)CN(Cc3ccc(F)cc3)C(=O)[C@@]2(C)[C@H]1c1ccccc1`, for which the cell number change is 8.47%. In the case of `COc1ccc(NC(=O)CN(C)C(=O)Cc2ccc3c(c2)CCC3)cc1`, the cell number change is 37.4%. The half-maximal activity concentration (AC50) under setting [2] is 9.2 µM [rising, partial curve]. Besides, the AC50 under setting [1] was 0.517 µM [rising, partial curve].

With `COc1ccc(NC(=O)N(Cc2cc3cc(OC)c(OC)cc3[nH]c2=O)CC2CCCO2)cc1` (configuration not stated), the cell number change worked out at 5.48%. In addition, the half-maximal activity concentration (AC50) under setting [1] is 0.411 µM [rising, full curve, poor fit].

Take `O=C(Cn1nnc(-c2ccc3c(c2)OCO3)n1)N1CCOCC1`: the cell number change is -9.47%. Also, under setting [1], the AC50 was 8.2 µM [falling, partial curve]. Regarding `CC(=O)Nc1ccc(Oc2cncc(Cl)c2)nc1`, the cell number change is 4.26%. `O=C(CSc1nnc(NC2CCCCC2)s1)N1CCOCC1`: the cell number change is -17.8%. Also, the AC50 under setting [1] is 0.461 µM [falling, full curve, poor fit]. For `CCOc1ccc(-n2cc(-c3ccccc3)c3c(N4CCOCC4)ncnc32)cc1`, the cell number change was 7.9%. Further, the concentration at half-maximal activity (AC50) under setting [2] is 1.03 µM [falling, partial curve]. With `Cc1ccccc1S(=O)(=O)Nc1ncnc2ccccc12`, the AC50 under setting [1] was 29.1 µM [rising, single point].

As to `O=C1NC(=S)S/C1=C/c1ccc(OC(=O)c2ccco2)cc1`, the cell number change was found to be 0.427%. For the same molecule, under setting [1], the concentration at half-maximal activity (AC50) is 6.51 µM [falling, single point]. Regarding `CCCNC(=O)C1CC(=O)N(c2ccc(OCc3ccc(Cl)cc3)cc2)C1` (configuration not stated), the cell number change was -1.76%. As to `Cc1ccc(N2CCN(/N=C/c3sccc3C)CC2)cc1`, the cell number change is 48.7%. Further, under setting [2], the AC50 was 7.31 µM [rising, partial curve, poor fit]. Further, the half-maximal activity concentration (AC50) under setting [1] was 6.51 µM [rising, single point].
